Results as given in the supplement of paper PMC12282887.
± gives the standard deviation of the averaged measurements. These are raw signals, not scaled to a control.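 The top concentration was set near the MIC for antimicrobials, at 500 µM for most other compounds, and up to 1 mM for known inducer-like compounds. Deletion strains started from a tenfold smaller inoculum, and wells growing below 10% of the overall median were treated as non-growing.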

Test system: Escherichia coli BW25113
Assay: growth (OD600 area under curve, 8 h) (OD600 x h); higher = more growth
Experimental: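 E. coli BW25113 reporter strains (wild type, ΔmarA, ΔsoxS, Δrob, each carrying one of 8 lux reporter plasmids) were grown in 40 µl LB in 384-well plates at 37°C, 800 rpm, with each compound at 4 two-fold concentrations, in biological duplicates. Growth is the baseline-corrected OD600 area under the curve over 8 h (0-8 h WT, 1-9 h deletion strains).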

CN[C@@H]1[C@H](O)[C@H](NC)[C@H]2O[C@@]3(O)C(=O)C[C@@H](C)O[C@H]3O[C@@H]2[C@H]1O [Spectinomycin]
growth
Conditions | reporter plasmid: EVC | reporter plasmid: acrABp | reporter plasmid: marRABp | reporter plasmid: micFp | reporter plasmid: ompFp | reporter plasmid: robp | reporter plasmid: soxSp | reporter plasmid: tolCp
0.62 µg/ml, genetic background: wild type | 2.89 ± 0.34 | 3.089 ± 0.023 | 3.01 ± 0.09 | 3.14 ± 0.13 | 2.89 ± 0.27 | 3 ± 0.49 | 3 ± 0.21 | 2.98 ± 0.09
0.62 µg/ml, genetic background: ΔmarA | 3.44 ± 0.59 | 3.64 ± 1.2 | 3.46 ± 0.99 | 3.24 ± 0.44 | 3.38 ± 0.67 | 3.39 ± 0.14 | 3 ± 0.054 | 3.16 ± 0.11
0.62 µg/ml, genetic background: Δrob | 2.965 ± 0.019 | 3.18 ± 0.35 | 2.84 ± 0.062 | 3.16 ± 0.15 | 2.35 ± 0.37 | 2.67 ± 0.1 | 3.07 ± 0.31 | 3.07 ± 0.12
0.62 µg/ml, genetic background: ΔsoxS | 3.36 ± 0.32 | 3.32 ± 0.72 | 3.16 ± 0.76 | 2.9 ± 0.2 | 2.8 ± 0.24 | 2.92 ± 0.12 | 3.19 ± 0.27 | 3.09 ± 0.25
1.2 µg/ml, genetic background: wild type | 2.94 ± 0.19 | 3.142 ± 0.028 | 2.883 ± 0.025 | 3.141 ± 0.026 | 2.99 ± 0.43 | 3 ± 0.46 | 3.051 ± 0.017 | 3.08 ± 0.19
1.2 µg/ml, genetic background: ΔmarA | 3.63 ± 0.44 | 2.8 ± 0.058 | 3.21 ± 1 | 3.27 ± 0.4 | 2.97 ± 1.3 | 2.7 ± 0.21 | 3.41 ± 0.14 | 3.2971 ± 0.0016
1.2 µg/ml, genetic background: Δrob | 3.1 ± 0.089 | 3.17 ± 0.45 | 2.74 ± 0.29 | 3.35 ± 0.46 | 2.1 ± 0.48 | 2.56 ± 0.044 | 3.08 ± 0.21 | 3.29 ± 0.3
1.2 µg/ml, genetic background: ΔsoxS | 3.47 ± 0.19 | 3.01 ± 0.12 | 2.94 ± 0.43 | 2.959 ± 0.014 | 2.8 ± 0.055 | 2.87 ± 0.039 | 2.85 ± 0.074 | 3.19 ± 0.24
2.5 µg/ml, genetic background: wild type | 2.88 ± 0.27 | 3.17 ± 0.75 | 3.26 ± 0.25 | 3.08 ± 0.078 | 3.18 ± 0.13 | 3.08 ± 0.32 | 3.08 ± 0.19 | 3.122 ± 0.029
2.5 µg/ml, genetic background: ΔmarA | 3.66 ± 0.75 | 3.97 ± 1.4 | 4.04 ± 0.75 | 3.42 ± 0.14 | 3.79 ± 0.22 | 4.12 ± 0.12 | 3.25 ± 0.059 | 3.21 ± 0.4
2.5 µg/ml, genetic background: Δrob | 3.09 ± 0.39 | 3.32 ± 0.5 | 3.36 ± 0.27 | 3.38 ± 0.36 | 2.72 ± 0.088 | 2.91 ± 0.5 | 2.96 ± 0.39 | 3.23 ± 0.44
2.5 µg/ml, genetic background: ΔsoxS | 3.29 ± 0.23 | 3.21 ± 0.73 | 3.29 ± 0.8 | 2.8 ± 0.1 | 3.08 ± 0.26 | 3.24 ± 0.17 | 3 ± 0.043 | 3.16 ± 0.25
5 µg/ml, genetic background: wild type | 2.76 ± 0.19 | 3.02 ± 0.61 | 3.09 ± 0.14 | 3 ± 0.12 | 2.7 ± 0.14 | 2.92 ± 0.33 | 2.61 ± 0.065 | 2.85 ± 0.13
5 µg/ml, genetic background: ΔmarA | 3.35 ± 0.45 | 3.67 ± 1.7 | 3.31 ± 1.6 | 3.2 ± 0.21 | 2.67 ± 1.1 | 3.08 ± 0.93 | 3.22 ± 0.29 | 3.08 ± 0.27
5 µg/ml, genetic background: Δrob | 3.13 ± 0.17 | 3.19 ± 0.36 | 3.03 ± 0.041 | 3.16 ± 0.31 | 2.22 ± 0.44 | 2.61 ± 0.27 | 2.99 ± 0.35 | 3.17 ± 0.21
5 µg/ml, genetic background: ΔsoxS | 3.26 ± 0.061 | 3.02 ± 0.51 | 3.06 ± 1.1 | 2.57 ± 0.15 | 2.76 ± 0.3 | 3.12 ± 0.31 | 2.76 ± 0.074 | 2.97 ± 0.16

C[C@H]1[C@H](NC(=O)/C(=N\OC(C)(C)C(=O)O)c2csc(N)n2)C(=O)N1S(=O)(=O)O [Aztreonam]
growth
Conditions | reporter plasmid: EVC | reporter plasmid: acrABp | reporter plasmid: marRABp | reporter plasmid: micFp | reporter plasmid: ompFp | reporter plasmid: robp | reporter plasmid: soxSp | reporter plasmid: tolCp
0.0054 µg/ml, genetic background: wild type | 2.61 ± 0.05 | 2.8 ± 0.08 | 3.03 ± 0.31 | 2.83 ± 0.57 | 2.61 ± 0.21 | 2.81 ± 0.35 | 2.58 ± 0.095 | 2.79 ± 0.41
0.0054 µg/ml, genetic background: ΔmarA | 2.841 ± 0.026 | 3.4 ± 1.3 | 2.77 ± 0.77 | 2.76 ± 0.06 | 2.65 ± 0.97 | 2.72 ± 0.75 | 2.31 ± 0.22 | 2.66 ± 0.33
0.0054 µg/ml, genetic background: Δrob | 2.12 ± 0.41 | 3.04 ± 0.24 | 3.05 ± 0.51 | 2.78 ± 0.052 | 1.81 ± 0.62 | 2.235 ± 0.015 | 2.62 ± 0.17 | 2.56 ± 0.026
0.0054 µg/ml, genetic background: ΔsoxS | 2.48 ± 0.2 | 2.77 ± 1.1 | 2.99 ± 0.77 | 2.27 ± 0.089 | 2.64 ± 0.55 | 2.96 ± 0.23 | 2.75 ± 0.62 | 2.56 ± 0.31
0.011 µg/ml, genetic background: wild type | 2.65 ± 0.051 | 3.06 ± 0.42 | 2.96 ± 0.2 | 2.75 ± 0.39 | 2.79 ± 0.34 | 3 ± 0.51 | 2.43 ± 0.064 | 2.54 ± 0.46
0.011 µg/ml, genetic background: ΔmarA | 3.04 ± 0.056 | 3.54 ± 0.99 | 3.37 ± 0.75 | 3.09 ± 0.13 | 2.61 ± 0.86 | 3.14 ± 1 | 2.31 ± 0.28 | 2.67 ± 0.39
0.011 µg/ml, genetic background: Δrob | 2.19 ± 0.54 | 3.77 ± 0.46 | 3.1 ± 0.52 | 2.51 ± 0.22 | 2.14 ± 0.39 | 2.48 ± 0.12 | 2.47 ± 0.29 | 2.28 ± 0.22
0.011 µg/ml, genetic background: ΔsoxS | 2.31 ± 0.17 | 2.96 ± 1.1 | 2.95 ± 0.59 | 2.04 ± 0.021 | 2.31 ± 0.18 | 2.93 ± 0.16 | 2.57 ± 0.71 | 2.36 ± 0.24
0.022 µg/ml, genetic background: wild type | 2.43 ± 0.029 | 3 ± 0.36 | 2.71 ± 0.42 | 2.71 ± 0.38 | 2.64 ± 0.26 | 2.57 ± 0.086 | 2.55 ± 0.12 | 2.42 ± 0.41
0.022 µg/ml, genetic background: ΔmarA | 2.38 ± 0.33 | 2.19 ± 0.33 | 2.72 ± 0.2 | 2.48 ± 0.07 | 2.32 ± 0.7 | 2.17 ± 0.25 | 2.22 ± 0.28 | 2.43 ± 0.093
0.022 µg/ml, genetic background: Δrob | 1.99 ± 0.22 | 2.84 ± 0.23 | 2.75 ± 0.22 | 2.07 ± 0.42 | 1.57 ± 0.13 | 2.17 ± 0.55 | 2.32 ± 0.27 | 2.28 ± 0.18
0.022 µg/ml, genetic background: ΔsoxS | 2.19 ± 0.38 | 2.6 ± 0.96 | 2.9 ± 0.69 | 1.93 ± 0.031 | 2.14 ± 0.068 | 3.11 ± 0.12 | 2.54 ± 1 | 2.43 ± 0.4
0.044 µg/ml, genetic background: wild type | 0.857 ± 0.17 | 0.00262 ± 0.011 | 0.0219 ± 0.025 | 0.0497 ± 0.1 | -0.0961 ± 0.0047 | -0.0692 ± 0.012 | 1.13 ± 0.36 | 0.61 ± 0.77
0.044 µg/ml, genetic background: ΔmarA | -0.105 ± 0.29 | 0.0639 ± 0.15 | -0.0247 ± 0.032 | -0.079 ± 0.015 | -0.0495 ± 0.011 | -0.0822 ± 0.042 | 0.888 ± 0.48 | -0.0775 ± 0.065
0.044 µg/ml, genetic background: Δrob | -0.264 ± 0.56 | 0.00596 ± 0.056 | -0.0122 ± 0.069 | -0.0634 ± 0.012 | -0.0342 ± 0.015 | -0.0754 ± 0.015 | 0.589 ± 0.69 | 0.0713 ± 0.17
0.044 µg/ml, genetic background: ΔsoxS | 0.228 ± 0.29 | -0.0545 ± 0.11 | -0.0567 ± 0.054 | -0.028 ± 0.048 | -0.0348 ± 0.032 | -0.044 ± 0.053 | 0.0324 ± 0.025 | 0.232 ± 0.014
